Measurements: patent US20240150465A1

Columns and labels:
Assay in all cases: ELISA with the human DLL3 ECD fragment proteins del0 to del6, OD405
del3 = molecular target: del3
del4 = molecular target: del4
del2 = molecular target: del2
del1 = molecular target: del1
del5 = molecular target: del5
del6 = molecular target: del6

Measured: binding

B1: DLA0106 (antibody, human IgG1, V domains shown)
VH: QSVEESGGRLVTPGTPLTLTCTVSGIDLSSYAMSWVRQAPGKGLEWIGIISNSGSGFYANWAKGRFTISKTSSTTVDVKISSPTTEDTATYFCARVFDADSSGYYYYGMDPWGPGTLVTVSS
VL: DVVMTQTPSSVSEPVGGTVTIKCQASEDIESYLAWYQQKPGQPPKLLIYAASTLASGVSSRFRGSGSGTEYTLTISDLECADAATYYCQSTYYDSSGVDWAFGGGTEVVVK
binds: del3 | del4 | del2 | del1

B2: DLA0316 (antibody, human IgG1, V domains shown)
VH: QEQLVESGGGLVQPGGSLKLSCKVSGFDFSNYGVSWVRQAPGKGLEWIGYIDPAFGRTYYASWVNGRFTISSHNAQNTLYLQLNSLTAADTATYFCVRVALVVAGVAYYGMDVWGPGTLVTVSS
VL: DVVMTQTPASVEAAVGGTVTINCQASQNIYSYLSWYQQKPGQPPKLLIYRTSTLASGVPSRFKGSGSGTQFTLTISDLECADAATYYCQSYYYSSGSSYGAFAFGGGTEVVVK
binds: all assays above

B3: DLA0580 (antibody, human IgG1, V domains shown)
VH: QEQLVESGGGLVQPGASLTLTCKASGFDFTSNAMCWVRQAPGKGPEWIACIYNDDGSAYSASWAKGRFTVSKTSSTAVTLQVTGLTAADTATYFCARSPYYTYGGAPSAYASGYFNLWGPGTLVTVSS
VL: DIVMTQTPASVEAAVGGTVTIKCQASENIYNSLAWYQQKPGQPPKLLMHDASVLTSGVPSRFSGSGYGTEFTLTISDLECADAATYYCQSDYYSTGGSYGFAFGGGTEVVVK
binds: del3 | del4 | del2 | del1

B4: DLA0841 (antibody, human IgG1, V domains shown)
VH: QEQLVESGGGLVQPEGSLTLTCTASGFSFSSSYDMCWVRQAPGKGPEWIACIYTGDGSTDYASWAKGRFTVSKASSTTVTLQMTSLAVADTATYFCARNSGYGYFGLWGPGTLVTVSS
VL: QVLTQTPSPVSAAVGGTVTISCQSTESVYGSDWLSWYQQKPGQPPKVLIYQASNLEIGVPSRFKGSGSGTQFTLTISGAQCDDAATYYCQGYYSGYIYAFGGGTEVVVK
binds: all assays above

B5: DLA0379 (antibody, human IgG1, V domains shown)
VH: QSLEESGGRLVTPGTPLTLTCTASGFSLNTYHMIWVRQAPGKGLEWIGIVDSGGSTYYASWAKGRFTISRTSTTVDLKATSLTTEDTATYFCARGGSWDGFNIWGPGTLVTVSS
VL: DVVMTQTPSSVSAAVGGTVTINCQSSQSVYNSDFLAWYQQKPGQPPKLLIYAASTLASGVPSRFKGSGSGTQFTLTISDLECDDAATYYCQGTYEDVGWFNDFGGGTEVVVK
binds: del1

B6: DLA0769 (antibody, human IgG1, V domains shown)
VH: QEQLVESGGGLVQPEGSLTLTCTASGFSFSSSGYMCWVRQAPGKGLEWIACISGGSSGDTDYANWAKGRFSISKTSSTTVTLQMTSLTVADTATYFCARDVYIDSTIFNFNLWGPGTLVTVSS
VL: QVLTQTPSPVSAAVGGTVTISCQASQSVYNNNNLAWYQQKPGQPPKLLIYAASSLASGVPSRFKGSGAGTQFTLTISDLECDDAATYYCQGTYYSSGWYSTFGGGTEVVVK
binds: all assays above

B7: DLA0641 (antibody, human IgG1, V domains shown)
VH: QEQLVESGGGLVQPGASLTLTCKASGFSFNTSYCPCWVRQVPGKGPEWIACIDAGYSGATWYANWAKGRFTISKTSSTTVTLQMTSLTGADTATYFCVRCDAAGSGAFNLWGPGTLVTVSS
VL: AYDMTQTPASVEVPVGGTVTIKCQASQSIYSYLSWYQQKPGQPPKLLIYEASKLTSGVPSRFSGSGSGTEFTLTISGVQCDDAATYYCQQGSGYMDVDNVFGGGTEVVVK
binds: all assays above

B8: DLA0126 (antibody, human IgG1, V domains shown)
VH: QSVEESGGRLVTPGTPLTLTCTVSGFSLSRYAMSWVRQAPGKGLEWIGIITGGGDPYYASWAKGRFTISKTSTTMDLKITSPTTEDTATYFCARMIGSEYASSSEYYDAFDPWGPGTLVTVSS
VL: ALVMTQTPSSVSAAVGGTVTINCQASQNIYSNLAWYQQKPGQRPKLLIYGASNLESGVPSRFKGSGSGTEYTLTISDLECDDAAIYYCQSAYYTTSVDVLYPFGGGTEVVVK
binds: del3 | del4 | del2 | del1

These are yes or no findings as the source states them, for the method shown. A result given as binding can be weak or reduced; the word gives no strength.
